Assay results published in article PMC6078952.
No constants are given. Whether binding was seen depends on the method and setting. For part of these data: Binding calls can cover weak binding; strength is not graded here.

Amino acid sequences for entries named in this document (tags omitted). A change or cut given only in a name is not applied to a line headed by its entry.
UniProt P00742: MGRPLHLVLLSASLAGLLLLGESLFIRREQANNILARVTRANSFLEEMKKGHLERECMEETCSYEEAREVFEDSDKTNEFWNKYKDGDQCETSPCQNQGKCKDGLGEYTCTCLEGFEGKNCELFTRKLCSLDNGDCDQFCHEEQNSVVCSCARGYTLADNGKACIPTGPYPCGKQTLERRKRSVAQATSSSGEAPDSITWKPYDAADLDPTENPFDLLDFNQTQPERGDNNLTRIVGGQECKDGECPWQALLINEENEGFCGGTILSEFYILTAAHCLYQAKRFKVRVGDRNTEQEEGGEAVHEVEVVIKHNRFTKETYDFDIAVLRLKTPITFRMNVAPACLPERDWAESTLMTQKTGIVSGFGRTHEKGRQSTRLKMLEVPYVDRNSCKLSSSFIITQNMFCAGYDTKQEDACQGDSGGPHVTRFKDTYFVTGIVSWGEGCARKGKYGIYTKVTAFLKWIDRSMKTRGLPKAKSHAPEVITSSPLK
UniProt Q6UW88: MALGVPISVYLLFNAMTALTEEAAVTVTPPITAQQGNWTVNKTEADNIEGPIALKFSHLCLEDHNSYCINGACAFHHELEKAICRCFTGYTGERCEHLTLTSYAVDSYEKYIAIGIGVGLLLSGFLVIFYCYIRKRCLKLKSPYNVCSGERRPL
UniProt P00747: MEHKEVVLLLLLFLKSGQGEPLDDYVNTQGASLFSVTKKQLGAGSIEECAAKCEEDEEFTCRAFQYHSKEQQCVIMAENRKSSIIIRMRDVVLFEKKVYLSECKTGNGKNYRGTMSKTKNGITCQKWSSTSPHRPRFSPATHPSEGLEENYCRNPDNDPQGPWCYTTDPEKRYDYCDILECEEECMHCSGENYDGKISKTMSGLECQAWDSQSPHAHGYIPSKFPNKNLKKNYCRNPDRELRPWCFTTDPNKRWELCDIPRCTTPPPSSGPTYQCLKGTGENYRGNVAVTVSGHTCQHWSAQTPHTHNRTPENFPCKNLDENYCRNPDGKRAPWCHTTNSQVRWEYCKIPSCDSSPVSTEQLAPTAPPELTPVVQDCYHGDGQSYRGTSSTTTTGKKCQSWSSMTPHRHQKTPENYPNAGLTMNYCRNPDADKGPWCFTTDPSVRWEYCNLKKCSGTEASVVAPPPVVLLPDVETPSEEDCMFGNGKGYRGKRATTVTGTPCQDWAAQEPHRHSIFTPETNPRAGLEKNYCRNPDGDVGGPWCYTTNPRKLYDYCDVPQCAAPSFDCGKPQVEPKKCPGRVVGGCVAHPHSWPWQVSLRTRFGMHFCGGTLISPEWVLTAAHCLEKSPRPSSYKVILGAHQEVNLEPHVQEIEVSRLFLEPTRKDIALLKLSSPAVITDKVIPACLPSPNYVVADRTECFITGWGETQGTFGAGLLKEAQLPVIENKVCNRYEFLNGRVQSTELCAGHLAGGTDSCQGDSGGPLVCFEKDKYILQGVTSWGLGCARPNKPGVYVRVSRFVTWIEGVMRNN

Experiments:
Assay in all cases: SPR; SPR imaging (SPRi, Biacore Flexchip): partners spotted in triplicate on a bare gold chip at 0.06 to 1 mg/ml; purified LOX-PP injected at 2 µM and recirculated for 20 min; PBS with 0.05% Tween 20, 25 °C; both purified
[1] = target: Coagulation factor X (UniProt P00742)
[2] = target: Epigen (UniProt Q6UW88)
[3] = target: Fibronectin (cellular)
[4] = target: Fibronectin (plasma)
[5] = target: Glypican 6
[6] = target: Plasminogen (UniProt P00747)
[7] = target: Superoxide dismutase
[8] = target: Transglutaminase-2 (TG-2) (guinea pig) (guinea pig)
[9] = target: Vascular endothelial growth factor (VEGF)

binding [1]: no binding (tested: 2 µM)
binding [2]: no binding (tested: 2 µM)
binding [3]: binds
binding [4]: no binding (tested: 2 µM)
binding [5]: no binding (tested: 2 µM)
binding [6]: binds
binding [7]: binds
binding [8]: no binding (tested: 2 µM)
binding [9]: no binding (tested: 2 µM)
B1: Lysyl oxidase propeptide (LOX-PP) (Pro24Leu) (domain or fragment, UniProt P28300 22-168)
chain: APLAAGQQQPPREPPAAPGAWRQQIQWENNGQVFSLLSLGSQYQPQRRRDPGAAVPGAANASAQQPRTPILLIRDNRTAAARTRTAGSSGVTAGRPRPTARHWFQAGYSTSRAREAGASRAENQTAPGEVPALSNLRPPSRVDGMVG
modifications: N-linked glycans (removed by PNGase F)
